From PubChem BioAssay AID248 (DTP/NCI, 2004) come the findings set out here.

The list is a part of this screen's results and no random one: it gathers tests that were run many times, whatever their T/C, doses with no T/C, and many T/C values between a quarter and a half above the control. Further doses and runs are listed elsewhere. T/C gives the treated animals as a percentage of the vehicle group. Some entries give survivors of the animals treated and no T/C: the source files T/C as zero there, which appears to mark a toxic dose or a test without result, not a measured value. Some doses without a T/C left all or most animals alive at the check, yet need not have been tolerated: the source hardly ever lists a survival T/C far under the control, and the zero likely stands for such cases as well. Survivors were counted at the toxicity check, usually on the fifth day, unless a day is given; later deaths do not show. Schedules are NCI's codes, taken here to give the interval after Q, in days (D) or hours (H), and the number of doses after X. Some schedule codes hold Z or #, which are not explained here. Some structures stand for samples that the source files as different forms (salt, stereo form or complex); doses refer to the form tested. Where survival is the endpoint, this PubChem deposit counts one and a half times the control or more as active, and values a quarter to a half above the control carry no call in these data; other NCI protocols may use other cut-offs.

For the test, the system named is L1210 leukemia ip in BDF1 mice, survival T/C. In words: NCI In Vivo Anticancer Drug Screen. Data for tumor model L1210 Leukemia (intraperitoneal) in B6D2F1 (BDF1) mice. The conditions noted are these: T/C endpoint: mean survival time, higher T/C = longer survival.
The mark [1] stands for this setting: dose: 200.0 mg/kg/injection, schedule: Q01DX009 (ip), vehicle: Klucel (hydroxypropylcellulose) (HPC).
Where [2] appears, read: dose: 200.0 mg/kg/injection, schedule: Q04DX003 (ip), vehicle: Klucel (hydroxypropylcellulose) (HPC).
[3] abbreviates: dose: 400.0 mg/kg/injection, schedule: Q01DX001 (ip), vehicle: saline.
The mark [4] stands for this setting: dose: 75.0 mg/kg/injection, schedule: Q01DX001 (ip), vehicle: saline.
The mark [5] stands for this setting: dose: 150.0 mg/kg/injection, schedule: Q01DX001 (ip), vehicle: saline.
The mark [6] stands for this setting: dose: 300.0 mg/kg/injection, schedule: Q01DX001 (ip), vehicle: saline.
The mark [7] stands for this setting: dose: 400.0 mg/kg/injection, schedule: Q04DX003 (ip), vehicle: saline.
The mark [8] stands for this setting: dose: 50.0 mg/kg/injection, schedule: Q01DX009 (ip), vehicle: saline with Tween-80.
Where [9] appears, read: dose: 100.0 mg/kg/injection, schedule: Q01DX009 (ip), vehicle: saline with Tween-80.
[10] abbreviates: dose: 200.0 mg/kg/injection, schedule: Q01DX009 (ip), vehicle: saline with Tween-80.
Setting [11] is: dose: 400.0 mg/kg/injection, schedule: Q04DX003 (ip), vehicle: Klucel (hydroxypropylcellulose) (HPC).
[12] abbreviates: dose: 400.0 mg/kg/injection, schedule: Q01DX009 (ip), vehicle: saline with Tween-80.
Setting [13] is: dose: 400.0 mg/kg/injection, schedule: Q01DX009 (ip), vehicle: Klucel (hydroxypropylcellulose) (HPC).
Setting [14] is: dose: 120.0 mg/kg/injection, schedule: Q01DX Z (ip), vehicle: methylcellulose (MC).

In the case of `COC(=O)C(CCC(=O)CCl)N1C(=O)c2ccccc2C1=O` (centres undefined), the survivor count (dose: 400.0 mg/kg/injection, schedule: Q04DX003 (ip), vehicle: saline with Tween-80) is 2 of 6.

Consider `CCN(CC)CCOc1cc(C)ccc1C(C)C`, for which the survivor count is reported as 1 of 6 under setting [1]; 0 of 6 under setting [2]; 2 of 6 (dose: 200.0 mg/kg/injection, schedule: Q04DX003 (ip), vehicle: saline with Tween-80); 0 of 4 under setting [3].

Take `O=C1CC2(CCCCC2)C(=O)N1`: the survivor count is given as 0 of 6 under setting [4], 0 of 6 under setting [5] and 0 of 6 under setting [6].

For `CCOC(=O)c1ccc(NC(C)=O)o1`, the survivor count (dose: 100.0 mg/kg/injection, schedule: Q01DX001 (ip), vehicle: carboxymethylcellulose (CMC)) was 0 of 4; the survivor count (dose: 200.0 mg/kg/injection, schedule: Q01DX001 (ip), vehicle: carboxymethylcellulose (CMC)) is given as 0 of 4; the survivor count (dose: 400.0 mg/kg/injection, schedule: Q01DX001 (ip), vehicle: carboxymethylcellulose (CMC)) is 1 of 4.

Consider `O=C(CC(=O)C(F)(F)C(F)(F)C(F)(F)F)C(F)(F)F`, for which the survivor count is recorded as 0 of 6 (dose: 50.0 mg/kg/injection, schedule: Q01DX009 (ip), vehicle: saline); 0 of 6 (dose: 100.0 mg/kg/injection, schedule: Q04DX003 (ip), vehicle: saline); 0 of 6 (dose: 200.0 mg/kg/injection, schedule: Q04DX003 (ip), vehicle: saline); 0 of 6 under setting [7].

Take `Nc1ccc2c(ccc3ccc4ccccc4c32)c1`: the survivor count is, setting by setting: (dose: 150.0 mg/kg/injection, schedule: Q01DX001 (ip), vehicle: carboxymethylcellulose (CMC)) 2 of 6; (dose: 300.0 mg/kg/injection, schedule: Q01DX001 (ip), vehicle: carboxymethylcellulose (CMC)) 0 of 6.

For the compound `O=C(CCl)Nc1ccc(S(=O)(=O)F)cc1`, the survivor count (dose: 200.0 mg/kg/injection, schedule: Q04DX003 (ip), vehicle: carboxymethylcellulose (CMC)) is 3 of 6 and the survivor count (dose: 400.0 mg/kg/injection, schedule: Q04DX003 (ip), vehicle: carboxymethylcellulose (CMC)) is listed as 4 of 6.

For `OC1C2C3CCC(C3)C2C(O)C2C3CCC(C3)C12` (centres undefined), the survivor count is 3 of 3 under setting [8], 3 of 3 under setting [9] and 3 of 3 under setting [10].

With `CCOC(=O)NCC(CCN1CCCCC1)(CCN1CCCCC1)c1cccc2ccccc12`, the survivor count was 0 of 6 under setting [2] and 0 of 6 under setting [11].

Take `c1ccc([Si](c2ccccc2)(c2ccccc2)c2ccc(-c3ccc([Si](c4ccccc4)(c4ccccc4)c4ccccc4)cc3)cc2)cc1`: the survivor count (dose: 100.0 mg/kg/injection, schedule: Q01DX001 (ip), vehicle: saline with Tween-80) is 6 of 6.

Take `FC(F)(Cl)c1nc2nc(Cl)c(Cl)nc2[nH]1`: the survivor count (dose: 200.0 mg/kg/injection, schedule: Q01DX009 (ip), vehicle: other) is 1 of 6.

Turning to `CCN(CC)/N=N/c1[nH]ncc1C(N)=O`, the T/C under setting [9] is 126 % of control; the T/C (dose: 133.0 mg/kg/injection, schedule: Q01DX009 (ip), vehicle: saline with Tween-80) was 132 % of control; the T/C (dose: 200.0 mg/kg/injection, schedule: Q01DX009 (ip), vehicle: saline with Tween-80, evaluated on day 20) is 144 % of control; the T/C (dose: 200.0 mg/kg/injection, schedule: Q01DX009 (ip), vehicle: saline with Tween-80, evaluated on day 30) is 126 % of control. The survivor count under setting [12] was 6 of 6.

Consider `C[N+](C)(C)CSc1ccccc1-n1cccc1`, for which the survivor count (dose: 100.0 mg/kg/injection, schedule: Q01DX009 (ip), vehicle: Klucel (hydroxypropylcellulose) (HPC)) was 0 of 6; the survivor count under setting [1] was 0 of 6; the survivor count under setting [13] is recorded as 0 of 6.

With `COc1ccc(Cl)cc1N`, the survivor count reads like this: under setting [1], 6 of 6; under setting [13], 6 of 6; under setting [11], 6 of 6.

Consider `CCOC(=O)C(CCC#N)(CCC#N)C(C)=O`, for which the survivor count under setting [11] is listed as 6 of 6.

For the compound `CC(=O)c1cno[n+]1[O-]`, the survivor count is given as 0 of 6 under setting [9], 0 of 6 under setting [10] and 0 of 6 under setting [12].

Regarding `CN(C)C=Nc1c2c(C#N)cn(C3OC(CO)C(O)C3O)c2nc[n+]1[O-]` (centres undefined), the survivor count is, setting by setting: (dose: 100.0 mg/kg/injection, schedule: Q01DX005 (ip), vehicle: saline) 6 of 6; (dose: 200.0 mg/kg/injection, schedule: Q01DX005 (ip), vehicle: saline) 5 of 6.

Turning to `NC(N)=N/N=C(\c1ccc(Cl)cc1)C1CC1`, the survivor count reads like this: under setting [14], 0 of 6; (dose: 120.0 mg/kg/injection, schedule: Q01DX Z (oral), vehicle: methylcellulose (MC)) 5 of 6; (dose: 625.0 mg/kg/injection, schedule: Q01DX Z (oral), vehicle: methylcellulose (MC)) 5 of 7.

As for `[NH-]C(CCC(N)=O)C(=O)O.[NH-]C(CCC(N)=O)C(=O)O.[Pd+2]` (centres undefined), under setting [7], the survivor count is recorded as 2 of 3.

On to `O=C(O)/C=C/C(=O)Nc1ccc([N+](=O)[O-])c(C(F)(F)F)c1`, for which the survivor count under setting [13] is given as 0 of 6.

Turning to `Nc1nc(N)c2nc(CNc3ccc(C(=O)NCCCC(=O)O)cc3)cnc2n1` (tested in a mixture with another compound), the survivor count runs as follows: (dose: 50.0 mg/kg/injection, schedule: Q01DX001 (ip), vehicle: Klucel (hydroxypropylcellulose) (HPC)) 2 of 6; (dose: 200.0 mg/kg/injection, schedule: Q01DX001 (ip), vehicle: Klucel (hydroxypropylcellulose) (HPC)) 2 of 6; (dose: 400.0 mg/kg/injection, schedule: Q01DX001 (ip), vehicle: Klucel (hydroxypropylcellulose) (HPC)) 0 of 6.

With `c1ccc(P(=N[P+](c2ccccc2)(c2ccccc2)c2ccccc2)(c2ccccc2)c2ccccc2)cc1`, the survivor count is on record as 0 of 3 under setting [8]; 0 of 3 (dose: 100.0 mg/kg/injection, schedule: Q01DX005 (ip), vehicle: saline with Tween-80); 0 of 3 under setting [9]; 0 of 3 (dose: 200.0 mg/kg/injection, schedule: Q01DX005 (ip), vehicle: saline with Tween-80); 0 of 3 under setting [10]; 0 of 3 (dose: 400.0 mg/kg/injection, schedule: Q01DX005 (ip), vehicle: saline with Tween-80).

In the case of `CN=C(NC)N/N=C(C)\C=N\NC(=NC)NC`, the T/C (dose: 15.0 mg/kg/injection, schedule: Q01DX Z (ip), vehicle: methylcellulose (MC)) is 136 % of control. Besides, the survivor count runs as follows: (dose: 60.0 mg/kg/injection, schedule: Q01DX Z (ip), vehicle: methylcellulose (MC)) 3 of 6; under setting [14], 1 of 6; (dose: 480.0 mg/kg/injection, schedule: Q01DX Z (ip), vehicle: saline) 3 of 6.

For `BrC1=C(Br)C(Br)(Br)C(Br)=C1Br`, the survivor count by setting is: (dose: 40.0 mg/kg/injection, schedule: Q01DX001 (ip), vehicle: saline) 1 of 6; under setting [4], 1 of 6; under setting [5], 0 of 6; under setting [6], 0 of 6.

Regarding `CC[N+](CC)(CC)CCCNC(c1ccccc1)C(Cl)(Cl)Cl` (centres undefined), the survivor count is, setting by setting: (dose: 100.0 mg/kg/injection, schedule: Q01DX001 (ip), vehicle: saline) 0 of 4; (dose: 200.0 mg/kg/injection, schedule: Q01DX001 (ip), vehicle: saline) 0 of 4; under setting [3], 0 of 4.

`C/C=C/C=C\COC(=O)C(C)(C)CCC`: the T/C (dose: 400.0 mg/kg/injection, schedule: Q04DX002 (ip), vehicle: saline) is 130 % of control.
